Among the data in ChEMBL document CHEMBL4725345, “DFG-1 Residue Controls Inhibitor Binding Mode and Affinity, Providing a Basis for Rational Design of Kinase Inhibitor Selectivity” (J Med Chem, 2020) are IC50 values, retold here.

Sequences of proteins named here, by UniProt entry; tags and fusion partners are left off.
UniProt Q9Y463, whole entry: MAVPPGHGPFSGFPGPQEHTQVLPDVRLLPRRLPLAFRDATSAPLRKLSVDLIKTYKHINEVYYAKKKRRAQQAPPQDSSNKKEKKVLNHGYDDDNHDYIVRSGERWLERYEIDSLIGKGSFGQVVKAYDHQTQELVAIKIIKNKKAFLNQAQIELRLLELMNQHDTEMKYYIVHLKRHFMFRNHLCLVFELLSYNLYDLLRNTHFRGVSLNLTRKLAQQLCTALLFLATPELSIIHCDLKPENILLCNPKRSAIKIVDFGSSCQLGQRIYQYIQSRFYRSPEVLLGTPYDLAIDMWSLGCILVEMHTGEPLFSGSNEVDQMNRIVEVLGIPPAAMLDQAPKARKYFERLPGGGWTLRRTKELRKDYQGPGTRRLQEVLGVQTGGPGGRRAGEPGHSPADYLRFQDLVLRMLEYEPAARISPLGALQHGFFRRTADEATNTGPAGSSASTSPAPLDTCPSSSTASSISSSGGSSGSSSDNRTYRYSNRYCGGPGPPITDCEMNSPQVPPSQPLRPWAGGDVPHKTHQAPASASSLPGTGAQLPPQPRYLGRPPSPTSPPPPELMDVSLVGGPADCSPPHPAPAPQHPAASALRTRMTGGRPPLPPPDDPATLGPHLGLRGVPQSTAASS

By IC50 is commonly meant the concentration that gives 50% inhibition. Lower therefore signals greater potency in that assay.

The assay addresses Dual specificity tyrosine-phosphorylation-regulated kinase 1B (Homo sapiens, UniProt Q9Y463).

With `Cn1cc(-c2ccc3occ(-c4cccc(-c5ccncc5)c4)c3n2)cn1`, the IC50 is 956 nM.
